Experimental data taken from the supplement of paper PMC10849652.
The other results are listed elsewhere or left out.

Protein sequences, listed by entry. Tags and fused reporters are not part of them. Lines headed by an entry give the natural chain unless they say otherwise; changes in a name come on top.
UniProt P36542: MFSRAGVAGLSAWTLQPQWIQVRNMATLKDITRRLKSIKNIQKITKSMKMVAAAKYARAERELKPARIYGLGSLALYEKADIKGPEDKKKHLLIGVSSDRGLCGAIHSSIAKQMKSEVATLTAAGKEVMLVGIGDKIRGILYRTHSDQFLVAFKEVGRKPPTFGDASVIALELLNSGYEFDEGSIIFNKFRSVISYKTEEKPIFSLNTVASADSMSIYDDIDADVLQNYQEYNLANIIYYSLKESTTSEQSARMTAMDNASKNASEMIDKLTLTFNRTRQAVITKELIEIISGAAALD
UniProt P30049: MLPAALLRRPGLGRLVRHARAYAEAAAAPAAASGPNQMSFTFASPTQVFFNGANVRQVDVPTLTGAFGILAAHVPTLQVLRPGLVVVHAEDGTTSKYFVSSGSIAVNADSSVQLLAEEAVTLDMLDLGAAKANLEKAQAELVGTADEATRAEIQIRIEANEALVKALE
UniProt P54252: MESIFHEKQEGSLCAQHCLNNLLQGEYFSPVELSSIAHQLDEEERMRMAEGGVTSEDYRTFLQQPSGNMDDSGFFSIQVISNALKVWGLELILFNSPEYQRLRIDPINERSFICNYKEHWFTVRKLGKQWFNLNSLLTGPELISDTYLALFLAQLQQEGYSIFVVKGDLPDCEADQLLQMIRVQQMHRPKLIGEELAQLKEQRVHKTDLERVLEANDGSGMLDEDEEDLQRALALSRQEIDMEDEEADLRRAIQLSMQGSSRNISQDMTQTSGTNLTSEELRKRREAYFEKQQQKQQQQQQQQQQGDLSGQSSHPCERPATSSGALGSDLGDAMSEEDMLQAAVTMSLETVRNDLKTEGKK
UniProt Q9UBL3, whole entry, looked up: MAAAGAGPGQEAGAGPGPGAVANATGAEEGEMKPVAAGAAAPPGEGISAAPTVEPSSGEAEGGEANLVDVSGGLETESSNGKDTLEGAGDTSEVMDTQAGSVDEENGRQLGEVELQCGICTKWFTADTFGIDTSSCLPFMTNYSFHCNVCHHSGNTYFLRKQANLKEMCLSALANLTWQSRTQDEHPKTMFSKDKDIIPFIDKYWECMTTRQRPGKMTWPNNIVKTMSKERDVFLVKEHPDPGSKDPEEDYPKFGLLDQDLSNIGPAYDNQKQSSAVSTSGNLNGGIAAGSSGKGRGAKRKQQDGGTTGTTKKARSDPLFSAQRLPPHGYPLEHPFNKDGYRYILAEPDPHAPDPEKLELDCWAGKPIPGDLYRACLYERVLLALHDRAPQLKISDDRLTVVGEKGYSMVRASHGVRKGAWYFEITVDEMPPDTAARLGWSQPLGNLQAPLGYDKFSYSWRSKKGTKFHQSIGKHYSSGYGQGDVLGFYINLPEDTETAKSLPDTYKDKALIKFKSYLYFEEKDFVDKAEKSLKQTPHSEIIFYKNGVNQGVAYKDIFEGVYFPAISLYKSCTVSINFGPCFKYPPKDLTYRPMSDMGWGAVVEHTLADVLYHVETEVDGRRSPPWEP
UniProt Q7Z3C6: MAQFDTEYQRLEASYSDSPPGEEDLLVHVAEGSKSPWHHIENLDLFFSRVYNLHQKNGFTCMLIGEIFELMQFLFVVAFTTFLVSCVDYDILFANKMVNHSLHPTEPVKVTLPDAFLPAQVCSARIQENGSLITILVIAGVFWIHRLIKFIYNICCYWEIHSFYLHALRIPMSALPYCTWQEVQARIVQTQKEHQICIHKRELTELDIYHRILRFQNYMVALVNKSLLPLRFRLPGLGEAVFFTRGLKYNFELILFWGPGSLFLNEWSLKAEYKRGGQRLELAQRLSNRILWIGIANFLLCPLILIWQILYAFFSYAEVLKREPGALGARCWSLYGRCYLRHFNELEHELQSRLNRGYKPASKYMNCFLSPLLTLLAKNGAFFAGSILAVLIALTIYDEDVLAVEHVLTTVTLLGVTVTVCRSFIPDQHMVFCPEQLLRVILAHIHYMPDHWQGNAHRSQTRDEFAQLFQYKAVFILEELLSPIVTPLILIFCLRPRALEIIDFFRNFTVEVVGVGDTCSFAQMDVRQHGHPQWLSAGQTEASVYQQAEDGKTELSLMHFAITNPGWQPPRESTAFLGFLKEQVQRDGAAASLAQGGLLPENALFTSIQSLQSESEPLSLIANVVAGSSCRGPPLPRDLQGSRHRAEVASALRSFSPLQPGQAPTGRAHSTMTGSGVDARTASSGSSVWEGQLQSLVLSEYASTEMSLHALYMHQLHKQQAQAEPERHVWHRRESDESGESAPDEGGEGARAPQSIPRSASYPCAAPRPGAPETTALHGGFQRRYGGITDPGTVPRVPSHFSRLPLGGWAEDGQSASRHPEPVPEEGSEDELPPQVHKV
UniProt P98196: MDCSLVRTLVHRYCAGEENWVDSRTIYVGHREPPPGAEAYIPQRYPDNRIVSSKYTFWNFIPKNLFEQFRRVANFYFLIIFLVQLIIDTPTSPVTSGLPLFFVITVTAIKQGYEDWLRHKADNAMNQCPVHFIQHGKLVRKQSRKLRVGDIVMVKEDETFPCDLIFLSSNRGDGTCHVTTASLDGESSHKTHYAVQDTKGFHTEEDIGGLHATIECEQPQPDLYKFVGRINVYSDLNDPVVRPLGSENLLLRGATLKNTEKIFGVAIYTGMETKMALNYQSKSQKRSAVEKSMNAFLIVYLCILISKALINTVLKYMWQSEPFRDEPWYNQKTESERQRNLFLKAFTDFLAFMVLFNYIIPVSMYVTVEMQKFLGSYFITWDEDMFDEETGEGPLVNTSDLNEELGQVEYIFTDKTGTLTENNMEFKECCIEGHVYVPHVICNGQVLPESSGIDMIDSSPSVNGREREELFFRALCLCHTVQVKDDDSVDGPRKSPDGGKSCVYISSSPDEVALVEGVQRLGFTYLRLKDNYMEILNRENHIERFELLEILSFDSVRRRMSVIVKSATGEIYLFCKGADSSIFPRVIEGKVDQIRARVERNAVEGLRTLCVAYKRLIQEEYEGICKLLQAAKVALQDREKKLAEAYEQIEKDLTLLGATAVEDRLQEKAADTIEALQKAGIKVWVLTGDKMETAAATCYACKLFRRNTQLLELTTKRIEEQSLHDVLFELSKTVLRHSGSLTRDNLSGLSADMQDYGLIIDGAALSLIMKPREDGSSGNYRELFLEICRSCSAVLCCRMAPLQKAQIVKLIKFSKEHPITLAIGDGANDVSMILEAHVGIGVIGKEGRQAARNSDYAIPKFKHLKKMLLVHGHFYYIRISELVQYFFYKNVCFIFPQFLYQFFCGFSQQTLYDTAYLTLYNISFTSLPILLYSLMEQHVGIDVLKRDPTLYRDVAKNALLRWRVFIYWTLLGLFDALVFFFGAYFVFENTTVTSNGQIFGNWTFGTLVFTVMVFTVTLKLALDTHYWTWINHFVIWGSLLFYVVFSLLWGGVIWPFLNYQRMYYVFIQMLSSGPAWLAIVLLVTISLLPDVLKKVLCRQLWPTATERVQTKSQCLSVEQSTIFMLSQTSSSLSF
UniProt P36543, whole entry, looked up: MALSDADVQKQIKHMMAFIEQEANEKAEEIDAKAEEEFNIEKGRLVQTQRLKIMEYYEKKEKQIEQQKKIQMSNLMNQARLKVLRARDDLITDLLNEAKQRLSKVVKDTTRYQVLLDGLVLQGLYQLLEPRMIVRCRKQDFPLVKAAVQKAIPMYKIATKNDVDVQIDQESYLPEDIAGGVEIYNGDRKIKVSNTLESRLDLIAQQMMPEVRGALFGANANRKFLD
UniProt P18859: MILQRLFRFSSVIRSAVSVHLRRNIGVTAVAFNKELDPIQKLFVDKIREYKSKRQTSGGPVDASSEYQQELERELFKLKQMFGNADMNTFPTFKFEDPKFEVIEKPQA
UniProt Q8WXE1: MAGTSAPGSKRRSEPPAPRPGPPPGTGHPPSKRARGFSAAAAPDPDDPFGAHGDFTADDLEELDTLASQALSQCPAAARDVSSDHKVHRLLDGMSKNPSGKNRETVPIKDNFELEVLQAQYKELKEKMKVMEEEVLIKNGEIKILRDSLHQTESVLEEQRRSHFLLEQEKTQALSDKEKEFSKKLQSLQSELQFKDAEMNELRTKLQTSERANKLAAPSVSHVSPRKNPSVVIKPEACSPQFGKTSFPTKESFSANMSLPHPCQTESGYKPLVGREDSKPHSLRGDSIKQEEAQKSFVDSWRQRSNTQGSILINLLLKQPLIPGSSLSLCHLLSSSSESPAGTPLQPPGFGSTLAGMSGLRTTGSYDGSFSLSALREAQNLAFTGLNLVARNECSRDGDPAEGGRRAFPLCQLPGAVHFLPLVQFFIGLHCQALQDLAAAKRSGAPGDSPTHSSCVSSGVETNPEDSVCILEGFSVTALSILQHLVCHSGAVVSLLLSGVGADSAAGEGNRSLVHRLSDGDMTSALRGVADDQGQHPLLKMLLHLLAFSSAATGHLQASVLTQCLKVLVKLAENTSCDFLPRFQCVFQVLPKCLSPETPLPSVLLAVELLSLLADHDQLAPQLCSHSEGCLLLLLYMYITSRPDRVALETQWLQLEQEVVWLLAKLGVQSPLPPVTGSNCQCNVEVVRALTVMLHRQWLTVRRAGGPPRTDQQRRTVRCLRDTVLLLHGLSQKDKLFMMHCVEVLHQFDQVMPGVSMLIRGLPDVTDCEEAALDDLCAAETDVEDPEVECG
UniProt P04424, whole entry, looked up: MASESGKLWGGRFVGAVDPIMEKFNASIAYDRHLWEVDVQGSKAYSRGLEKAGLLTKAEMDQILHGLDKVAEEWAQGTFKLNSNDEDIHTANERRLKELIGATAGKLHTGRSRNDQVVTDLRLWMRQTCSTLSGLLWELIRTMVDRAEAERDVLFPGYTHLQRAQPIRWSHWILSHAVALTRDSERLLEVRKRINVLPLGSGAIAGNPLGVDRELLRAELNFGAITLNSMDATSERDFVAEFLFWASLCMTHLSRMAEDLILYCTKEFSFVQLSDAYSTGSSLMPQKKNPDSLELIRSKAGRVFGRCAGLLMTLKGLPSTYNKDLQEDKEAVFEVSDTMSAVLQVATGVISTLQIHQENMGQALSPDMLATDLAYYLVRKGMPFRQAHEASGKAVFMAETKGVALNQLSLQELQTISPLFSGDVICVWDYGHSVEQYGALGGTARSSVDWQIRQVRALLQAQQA
UniProt Q96DT6: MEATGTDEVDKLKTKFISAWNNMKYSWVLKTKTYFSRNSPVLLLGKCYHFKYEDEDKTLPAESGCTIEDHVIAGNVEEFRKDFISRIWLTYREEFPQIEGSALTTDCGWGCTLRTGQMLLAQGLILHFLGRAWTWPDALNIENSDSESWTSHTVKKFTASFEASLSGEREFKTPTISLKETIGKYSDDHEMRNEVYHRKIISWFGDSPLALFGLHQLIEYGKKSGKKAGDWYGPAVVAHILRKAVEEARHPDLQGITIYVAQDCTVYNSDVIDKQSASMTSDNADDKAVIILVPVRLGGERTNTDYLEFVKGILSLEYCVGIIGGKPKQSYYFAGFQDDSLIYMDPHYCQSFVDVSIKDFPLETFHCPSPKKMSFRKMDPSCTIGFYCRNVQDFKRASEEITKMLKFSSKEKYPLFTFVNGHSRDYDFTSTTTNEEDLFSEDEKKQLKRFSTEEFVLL
UniProt Q13733, whole entry, looked up: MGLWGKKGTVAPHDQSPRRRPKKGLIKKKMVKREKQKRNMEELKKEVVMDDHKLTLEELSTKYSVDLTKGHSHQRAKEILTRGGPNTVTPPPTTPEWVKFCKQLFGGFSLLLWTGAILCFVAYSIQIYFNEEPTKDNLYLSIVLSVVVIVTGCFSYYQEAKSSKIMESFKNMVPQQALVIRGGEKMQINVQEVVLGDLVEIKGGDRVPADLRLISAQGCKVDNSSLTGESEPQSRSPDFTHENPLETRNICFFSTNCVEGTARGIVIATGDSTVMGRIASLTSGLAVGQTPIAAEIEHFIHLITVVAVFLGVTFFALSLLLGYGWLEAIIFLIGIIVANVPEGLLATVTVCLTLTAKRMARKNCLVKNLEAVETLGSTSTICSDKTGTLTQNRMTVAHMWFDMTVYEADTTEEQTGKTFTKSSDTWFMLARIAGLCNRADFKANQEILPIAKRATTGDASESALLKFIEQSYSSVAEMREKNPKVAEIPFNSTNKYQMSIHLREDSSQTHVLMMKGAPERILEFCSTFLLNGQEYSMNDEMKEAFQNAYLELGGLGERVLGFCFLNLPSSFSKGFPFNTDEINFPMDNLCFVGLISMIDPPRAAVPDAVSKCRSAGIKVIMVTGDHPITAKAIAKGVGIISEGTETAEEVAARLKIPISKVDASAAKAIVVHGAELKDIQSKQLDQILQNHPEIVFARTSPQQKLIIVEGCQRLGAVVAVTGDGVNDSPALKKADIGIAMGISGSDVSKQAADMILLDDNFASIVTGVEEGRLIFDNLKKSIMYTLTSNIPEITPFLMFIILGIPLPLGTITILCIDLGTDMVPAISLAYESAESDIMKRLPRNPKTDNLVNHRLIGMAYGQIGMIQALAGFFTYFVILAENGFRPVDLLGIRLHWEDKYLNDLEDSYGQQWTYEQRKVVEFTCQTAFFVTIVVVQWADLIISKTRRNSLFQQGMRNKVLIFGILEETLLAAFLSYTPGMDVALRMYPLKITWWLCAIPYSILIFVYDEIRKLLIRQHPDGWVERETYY

What follows are targets tested with C1=CC2=NC=CN=C2C=C1/C=C/3\C(=O)NC(=O)S3 (assay: log2 fold change, soluble protein after heating vs DMSO (PISA); higher = thermal stabilisation; K562 lysate, 10 uM; active = over 0.2 and 3.5 SD of the protein, either way, in both replicates (recomputed)).
Summary of the method: (§1)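 The values are log-two fold changes in thermal stability compared with solvent controls and come from duplicates. They were obtained by TMTpro 16plex LC-MS/MS, with channel sums equalised, on the supernatant after 21,000xg for 90 min. That supernatant came from crude K562 extract at 1 mg/mL protein treated with 10 μM compound for 30 min, heated for 3 min across 48°C-58°C, pooled and brought to 0.5% NP-40 at 4°C.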

log2 fold change, inactive:
B3GLCT (UniProt Q6Y288) -0.078
ATP13A1 (UniProt Q9HD20) -0.026
ATP5F1C (UniProt P36542) -0.009
ATP2B4 (UniProt P23634) 0.019
ATP5F1D (UniProt P30049) 0.016
ATP23 (UniProt Q9Y6H3) -0.033
ATXN3 isoform 1 (UniProt P54252) 0.113
AZGP1 (UniProt P25311) 0.308
ASH2L (UniProt Q9UBL3) 0.001
ATG9A (UniProt Q7Z3C6) 0.026
ATP6V1E2 (UniProt Q96A05) -0.006
ATP1A1 (UniProt P05023) 0
ATG101 (UniProt Q9BSB4) 0
B2M (UniProt P61769) 0.074
ASB6 (UniProt Q9NWX5) -0.005
ATP11A (UniProt P98196) -0.022
ATP6V1E1 (UniProt P36543) -0.053
ATP5PF isoform 2 (UniProt P18859) 0.017
ATP13A2 (UniProt Q9NQ11) 0.008
ATG7 (UniProt O95352) 0.015
ATRIP (UniProt Q8WXE1) 0.046
AVL9 (UniProt Q8NBF6) -0.011
ATP6V1F isoform 2 (UniProt Q16864) 0.136
ASL (UniProt P04424) -0.026
ATE1 isoform 2 (UniProt O95260) 0.027
ATP1A3 isoform 3 (UniProt P13637) -0.012
ATXN10 (UniProt Q9UBB4) 0.015
ATP6V1B2 (UniProt P21281) -0.016
ATG2A isoform 3 (UniProt Q2TAZ0) -0.041
ASF1B (UniProt Q9NVP2) -0.028
ATG4C (UniProt Q96DT6) -0.014
ATP1A4 (UniProt Q13733) -0.006
ASNA1 (UniProt O43681) 0.017
ATP5PO (UniProt P48047) -0.02

The targets below were run with C1=CC=C(C=C1)C2=NC(=C(N2)C3=CC=NC=C3)C4=CC(=C(C=C4)Cl)O in the same assay as above.
Summary of the method: as §1

log2 fold change, inactive:
B3GLCT (UniProt Q6Y288) 0.006
ATP13A1 (UniProt Q9HD20) 0.02
ATP5F1C (UniProt P36542) 0.018
ATP2B4 (UniProt P23634) -0.015
ATP5F1D (UniProt P30049) -0.014
ATP23 (UniProt Q9Y6H3) 0.054
ATXN3 isoform 1 (UniProt P54252) 0.024
AZGP1 (UniProt P25311) 0.282
ASH2L (UniProt Q9UBL3) -0.007
ATG9A (UniProt Q7Z3C6) 0.002
ATP6V1E2 (UniProt Q96A05) -0.016
ATP1A1 (UniProt P05023) 0.014
ATG101 (UniProt Q9BSB4) 0.024
B2M (UniProt P61769) 0.041
ASB6 (UniProt Q9NWX5) 0.06
ATP11A (UniProt P98196) 0.016
ATP6V1E1 (UniProt P36543) -0.014
ATP5PF isoform 2 (UniProt P18859) 0.05
ATP13A2 (UniProt Q9NQ11) 0.024
ATG7 (UniProt O95352) -0.003
ATRIP (UniProt Q8WXE1) 0.064
AVL9 (UniProt Q8NBF6) -0.014
ATP6V1F isoform 2 (UniProt Q16864) 0.025
ASL (UniProt P04424) 0.008
ATE1 isoform 2 (UniProt O95260) 0.007
ATP1A3 isoform 3 (UniProt P13637) -0.005
ATXN10 (UniProt Q9UBB4) 0.012
ATP6V1B2 (UniProt P21281) 0.026
ATG2A isoform 3 (UniProt Q2TAZ0) -0.011
ASF1B (UniProt Q9NVP2) 0.001
ATG4C (UniProt Q96DT6) 0.021
ATP1A4 (UniProt Q13733) 0.003
ASNA1 (UniProt O43681) -0.029
ATP5PO (UniProt P48047) 0.015
